Data taken from ChEMBL document CHEMBL3988442, “University of Dundee, Small-Polar-MMV Screening Library” (2021).

A: 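Whole-cell assay for inhibitors of Mycobacterium tuberculosis growth, labelled Cornell in the record; the read-out is not stated. The concentration is filed as 10 mM, unlikely as a test dose, so the dose is not known. Higher means stronger inhibition (inferred from two other growth screens of the library). Of about 53,000 compounds tested this way, about 900 (1.7%) reached 50% or more in at least one test.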
B: 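Assay on Mycobacterium tuberculosis, filed only as a heat shock assay from Cornell; the read-out is not stated. The concentration is filed as 10 mM, unlikely as a test dose, so the dose is not known. Higher reads as stronger inhibition (inferred: compounds with an IC50 in retests scored well above the rest). Size under these conditions: about 69,000 compounds, about 930 of them at 50% or above in at least one test.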

Values are the deposited “Percent Effect”, in %. The controls that fix the scale are not given in the record; negative values are as filed. This is an unselected part of the compounds tested. A dash means the value is not listed here; it may have been measured.

| Compound | A | B |
|---|---|---|
| `CC(C)Cc1noc(CN2CCCC(CNS(N)(=O)=O)C2)n1` (centres undefined) | - | -26.78 |
| `O=C(NCC1(c2ccc(F)cc2)CCC1)N1CCC2(C1)OCCO2` | 27.01 | -10.38 |
| `Cc1noc(C)c1S(=O)(=O)N(CC(N)=O)CC(C)C` | - | 5.283 |
| `O=C(CO)N1CCN(S(=O)(=O)CCCF)CC1` | -37.24 | -16.81 |
| `O=C(c1cnco1)N1CCCC(Cc2cccc3ncccc23)C1` (centres undefined) | 3.057 | 5.337 |
| `COc1cc2c(cc1OC)S(=O)(=O)N(Cc1ccccc1C)C2=O` | -25.71 | 1.649 |
| `CC1CN(S(=O)(=O)c2ccc(F)cc2)c2cccnc2O1` (centres undefined) | 8.481 | -15.88 |
| `Cc1cnn(CC2CCCN2Cc2nc3ccccc3c(=O)[nH]2)c1` (centres undefined) | - | 89.62 |
| `CCOCC1CN(Cc2nccs2)Cc2nn(CC3CC3)cc21.O=C(O)C(F)(F)F` (centres undefined) | 30.52 | -15.15 |
| `Cc1cc(C)c(-c2nc(-c3c(C)ncc4c3CCNC4)no2)o1` | -1.968 | -3.387 |
| `CN(C)c1nc(NCCc2ccnn2C)ncc1F` | -19.63 | -13.31 |
| `CCc1nc(C2CCCN(C(=O)c3cnn(CC)c3)C2)no1` (centres undefined) | -9.423 | -7.605 |
| `CCC(C)N(Cc1cccnc1)Cc1ccccc1Cn1cccn1` (centres undefined) | 28.32 | -20.63 |
| `O=C(NCCn1ccnc1)c1ccn(-c2cccc(F)c2)n1` | 9.515 | -17.05 |
| `CNS(=O)(=O)c1ccc(CNC(=O)c2cc(-c3ccccn3)no2)cc1` | 1.879 | -5.229 |
| `C=C(C)COc1cccc(C(=O)N(CC)Cc2noc(C)n2)c1` | 17.05 | -24.11 |
| `Cc1ccc(C(=O)N(C2CC2)C2CC(=O)NC2=O)cc1F` (centres undefined) | - | 3.517 |
| `COc1cc(CNC(=O)Nc2nnc(C3CC3)s2)ccc1O` | 22.63 | -34.28 |
| `CNC(=O)C1(c2cnccn2)CCCN1C(=O)c1ncccc1C` (centres undefined) | -16.6 | -8.709 |
| `Cc1nccn1CCCC(=O)N1CCC(Nc2cccnn2)CC1` | 9.051 | -4.743 |
| `O=C(NC1CCCCC1)N1CCc2onc(COc3cccnc3)c2C1.O=C(O)C(F)(F)F` | -46.32 | 9.654 |
| `CC(CS(C)(=O)=O)N(C(=O)CCc1ccsc1)C1CC1` (centres undefined) | -10.19 | -14.57 |
| `CCC(O)(CNCc1cc[nH]n1)c1ccc(Br)cc1` (centres undefined) | -21.38 | -22.22 |
| `CC(=O)N(Cc1ncc(C)o1)C1CCN(CCc2cccs2)C1` (centres undefined) | 1.307 | -13.39 |
| `CC(C)c1nsc(N2CCn3c(nnc3C(F)(F)F)C2)n1` | 10.43 | 0.124 |
| `O=C(N[C@@H]1CCN(Cc2cc3ccccc3s2)C[C@H]1O)c1cccnc1` | 23.71 | 23.41 |
| `Cc1cccc(N2CCOCC3(C2)CN(c2ccccc2)C(=O)CO3)n1.O=C(O)C(F)(F)F` (centres undefined) | 7.657 | 4.024 |
| `O=C(c1cccnc1Oc1ccccc1)N1CCCn2ncnc21` | -13.8 | -11.74 |
| `Cn1cnnc1CC1CCN(Cc2c(Cl)cncc2Cl)CC1` | - | -22.18 |
| `CC(C)Cc1cc(C(=O)N2CCCN(c3ncccn3)CC2)[nH]n1` | 17.08 | -4.033 |
| `Cc1ncc(CN2CCc3c(nc4cc(C5CC5)nn4c3O)C2)n1C` | -4.994 | -7.378 |
| `CN(C(=O)CCNC(=O)C1COc2ccccc21)c1ccccc1` (centres undefined) | 17.57 | -9.823 |
| `COc1cccc(C(=O)NCc2ccccc2S(=O)(=O)N(C)CCO)c1` | -10.75 | 13.2 |
| `Cc1ccc2c(c1)C(N(C)C)CC21CCN(CCO)CC1.O=C(O)C(F)(F)F.O=C(O)C(F)(F)F` (centres undefined) | 8.277 | -21.13 |
| `COCCNc1ncc(-c2onc(C)c2C)c(-c2ccco2)n1` | 4.47 | 5.808 |
| `CC(=O)Nc1ccc(CNC(C)c2c(C)nn(C)c2C)cc1` (centres undefined) | -1.59 | -14.33 |
| `O=C(O)C(F)(F)F.[H][C@]12C[C@@H](CN(C)C)N(C(C)=O)[C@@]1([H])CCN(C(=O)c1cccn1C)C2` | 10.02 | -10.3 |
| `CC(C)c1nc(CNC2CCCN(c3cccnn3)C2)no1` (centres undefined) | - | -11.29 |
| `O=C(NCc1ccc(Cl)cc1Cl)NCC1(O)CCSC1` (centres undefined) | 10.16 | -4.816 |
| `COc1ccc2nnc(CCCC(=O)NCc3ccccc3)n2n1` | 24.24 | 7.661 |
| `CCOCc1nc2c(c(N3CC=CC3)n1)CCN(Cc1ccco1)CC2` | 16.92 | -12.26 |
| `O=C(Nc1ccc2c(c1)OCO2)N1CCN(CCc2ccccc2)CC1` | 16.04 | -0.8368 |
| `COc1ccc(-n2ccc(C(=O)N(CCN(C)C)C(C)C)n2)cc1` | 13.55 | 2.389 |
| `CN(C)C(=O)Cc1ccc(NCc2nccn2C)cc1` | 31.58 | -7.056 |
| `CNC(=O)c1ccc2c(c1)C1(CCN(CCOC)CC1)C(=O)N2.O=C(O)C(F)(F)F` | - | -17.93 |
| `O=C(O)C(F)(F)F.[H][C@@]12CN(CC3CCOC3)C[C@@]1([H])N(Cc1cccc(F)c1)C(=O)CO2` (some centres undefined) | -8.766 | -9.178 |
| `COc1ccc(OC)c(NC(=O)NCC(O)c2ccc(F)c(F)c2)c1` (centres undefined) | - | 4.103 |
| `CC(C)N1CC(n2ccnc2-c2nccn2C)CC1=O` (centres undefined) | -23.92 | 15.89 |
| `Cc1ccccc1C(CNc1ncnc2c1CCNC2)N(C)C` (centres undefined) | -18.26 | -6.016 |
| `O=C(O)C(F)(F)F.[H][C@@]12COC[C@]1(C(=O)N1CCCO1)CN(Cc1nccs1)C2` | -0.4026 | -5.918 |
| `O=C(O)Cc1cccc(-n2ccnc2-c2ccc(F)c(Cl)c2)c1` | 28.78 | -24.48 |
| `CN(C)[C@@H]1CN(C(=O)COc2cccc(F)c2)C[C@H]1O` | - | -8.811 |
| `CN1CC(Nc2ccc(Br)cc2C#N)CCC1=O` (centres undefined) | -2.906 | 7.867 |
| `CCOC(=O)C1(NCC(=O)Nc2cc(C)ccc2OC)CCCC1` | 14.61 | -27.43 |
| `c1cncc(NCCNC2CCCNC2)c1` (centres undefined) | -26.79 | -35.62 |
| `Cc1ncc(C(=O)N2CCCN(Cc3ccccc3F)CC2)c(O)n1` | 0.587 | -20.09 |

Repeated from the top, 4 entries:

Compound	A	B
CC(C)Cc1noc(CN2CCCC(CNS(N)(=O)=O)C2)n1 (centres undefined)	-	-26.78
O=C(NCC1(c2ccc(F)cc2)CCC1)N1CCC2(C1)OCCO2	27.01	-10.38
Cc1noc(C)c1S(=O)(=O)N(CC(N)=O)CC(C)C	-	5.283
O=C(CO)N1CCN(S(=O)(=O)CCCF)CC1	-37.24	-16.81